Data published in PMC11350265.
No constants are given. Whether binding was seen depends on the method and setting. In cells and extracts the contact can be indirect. Some binding calls cover weakened binding; strength is not graded here.

Protein sequences, listed by entry. Tags and fused reporters are not part of them.
UniProt O14686: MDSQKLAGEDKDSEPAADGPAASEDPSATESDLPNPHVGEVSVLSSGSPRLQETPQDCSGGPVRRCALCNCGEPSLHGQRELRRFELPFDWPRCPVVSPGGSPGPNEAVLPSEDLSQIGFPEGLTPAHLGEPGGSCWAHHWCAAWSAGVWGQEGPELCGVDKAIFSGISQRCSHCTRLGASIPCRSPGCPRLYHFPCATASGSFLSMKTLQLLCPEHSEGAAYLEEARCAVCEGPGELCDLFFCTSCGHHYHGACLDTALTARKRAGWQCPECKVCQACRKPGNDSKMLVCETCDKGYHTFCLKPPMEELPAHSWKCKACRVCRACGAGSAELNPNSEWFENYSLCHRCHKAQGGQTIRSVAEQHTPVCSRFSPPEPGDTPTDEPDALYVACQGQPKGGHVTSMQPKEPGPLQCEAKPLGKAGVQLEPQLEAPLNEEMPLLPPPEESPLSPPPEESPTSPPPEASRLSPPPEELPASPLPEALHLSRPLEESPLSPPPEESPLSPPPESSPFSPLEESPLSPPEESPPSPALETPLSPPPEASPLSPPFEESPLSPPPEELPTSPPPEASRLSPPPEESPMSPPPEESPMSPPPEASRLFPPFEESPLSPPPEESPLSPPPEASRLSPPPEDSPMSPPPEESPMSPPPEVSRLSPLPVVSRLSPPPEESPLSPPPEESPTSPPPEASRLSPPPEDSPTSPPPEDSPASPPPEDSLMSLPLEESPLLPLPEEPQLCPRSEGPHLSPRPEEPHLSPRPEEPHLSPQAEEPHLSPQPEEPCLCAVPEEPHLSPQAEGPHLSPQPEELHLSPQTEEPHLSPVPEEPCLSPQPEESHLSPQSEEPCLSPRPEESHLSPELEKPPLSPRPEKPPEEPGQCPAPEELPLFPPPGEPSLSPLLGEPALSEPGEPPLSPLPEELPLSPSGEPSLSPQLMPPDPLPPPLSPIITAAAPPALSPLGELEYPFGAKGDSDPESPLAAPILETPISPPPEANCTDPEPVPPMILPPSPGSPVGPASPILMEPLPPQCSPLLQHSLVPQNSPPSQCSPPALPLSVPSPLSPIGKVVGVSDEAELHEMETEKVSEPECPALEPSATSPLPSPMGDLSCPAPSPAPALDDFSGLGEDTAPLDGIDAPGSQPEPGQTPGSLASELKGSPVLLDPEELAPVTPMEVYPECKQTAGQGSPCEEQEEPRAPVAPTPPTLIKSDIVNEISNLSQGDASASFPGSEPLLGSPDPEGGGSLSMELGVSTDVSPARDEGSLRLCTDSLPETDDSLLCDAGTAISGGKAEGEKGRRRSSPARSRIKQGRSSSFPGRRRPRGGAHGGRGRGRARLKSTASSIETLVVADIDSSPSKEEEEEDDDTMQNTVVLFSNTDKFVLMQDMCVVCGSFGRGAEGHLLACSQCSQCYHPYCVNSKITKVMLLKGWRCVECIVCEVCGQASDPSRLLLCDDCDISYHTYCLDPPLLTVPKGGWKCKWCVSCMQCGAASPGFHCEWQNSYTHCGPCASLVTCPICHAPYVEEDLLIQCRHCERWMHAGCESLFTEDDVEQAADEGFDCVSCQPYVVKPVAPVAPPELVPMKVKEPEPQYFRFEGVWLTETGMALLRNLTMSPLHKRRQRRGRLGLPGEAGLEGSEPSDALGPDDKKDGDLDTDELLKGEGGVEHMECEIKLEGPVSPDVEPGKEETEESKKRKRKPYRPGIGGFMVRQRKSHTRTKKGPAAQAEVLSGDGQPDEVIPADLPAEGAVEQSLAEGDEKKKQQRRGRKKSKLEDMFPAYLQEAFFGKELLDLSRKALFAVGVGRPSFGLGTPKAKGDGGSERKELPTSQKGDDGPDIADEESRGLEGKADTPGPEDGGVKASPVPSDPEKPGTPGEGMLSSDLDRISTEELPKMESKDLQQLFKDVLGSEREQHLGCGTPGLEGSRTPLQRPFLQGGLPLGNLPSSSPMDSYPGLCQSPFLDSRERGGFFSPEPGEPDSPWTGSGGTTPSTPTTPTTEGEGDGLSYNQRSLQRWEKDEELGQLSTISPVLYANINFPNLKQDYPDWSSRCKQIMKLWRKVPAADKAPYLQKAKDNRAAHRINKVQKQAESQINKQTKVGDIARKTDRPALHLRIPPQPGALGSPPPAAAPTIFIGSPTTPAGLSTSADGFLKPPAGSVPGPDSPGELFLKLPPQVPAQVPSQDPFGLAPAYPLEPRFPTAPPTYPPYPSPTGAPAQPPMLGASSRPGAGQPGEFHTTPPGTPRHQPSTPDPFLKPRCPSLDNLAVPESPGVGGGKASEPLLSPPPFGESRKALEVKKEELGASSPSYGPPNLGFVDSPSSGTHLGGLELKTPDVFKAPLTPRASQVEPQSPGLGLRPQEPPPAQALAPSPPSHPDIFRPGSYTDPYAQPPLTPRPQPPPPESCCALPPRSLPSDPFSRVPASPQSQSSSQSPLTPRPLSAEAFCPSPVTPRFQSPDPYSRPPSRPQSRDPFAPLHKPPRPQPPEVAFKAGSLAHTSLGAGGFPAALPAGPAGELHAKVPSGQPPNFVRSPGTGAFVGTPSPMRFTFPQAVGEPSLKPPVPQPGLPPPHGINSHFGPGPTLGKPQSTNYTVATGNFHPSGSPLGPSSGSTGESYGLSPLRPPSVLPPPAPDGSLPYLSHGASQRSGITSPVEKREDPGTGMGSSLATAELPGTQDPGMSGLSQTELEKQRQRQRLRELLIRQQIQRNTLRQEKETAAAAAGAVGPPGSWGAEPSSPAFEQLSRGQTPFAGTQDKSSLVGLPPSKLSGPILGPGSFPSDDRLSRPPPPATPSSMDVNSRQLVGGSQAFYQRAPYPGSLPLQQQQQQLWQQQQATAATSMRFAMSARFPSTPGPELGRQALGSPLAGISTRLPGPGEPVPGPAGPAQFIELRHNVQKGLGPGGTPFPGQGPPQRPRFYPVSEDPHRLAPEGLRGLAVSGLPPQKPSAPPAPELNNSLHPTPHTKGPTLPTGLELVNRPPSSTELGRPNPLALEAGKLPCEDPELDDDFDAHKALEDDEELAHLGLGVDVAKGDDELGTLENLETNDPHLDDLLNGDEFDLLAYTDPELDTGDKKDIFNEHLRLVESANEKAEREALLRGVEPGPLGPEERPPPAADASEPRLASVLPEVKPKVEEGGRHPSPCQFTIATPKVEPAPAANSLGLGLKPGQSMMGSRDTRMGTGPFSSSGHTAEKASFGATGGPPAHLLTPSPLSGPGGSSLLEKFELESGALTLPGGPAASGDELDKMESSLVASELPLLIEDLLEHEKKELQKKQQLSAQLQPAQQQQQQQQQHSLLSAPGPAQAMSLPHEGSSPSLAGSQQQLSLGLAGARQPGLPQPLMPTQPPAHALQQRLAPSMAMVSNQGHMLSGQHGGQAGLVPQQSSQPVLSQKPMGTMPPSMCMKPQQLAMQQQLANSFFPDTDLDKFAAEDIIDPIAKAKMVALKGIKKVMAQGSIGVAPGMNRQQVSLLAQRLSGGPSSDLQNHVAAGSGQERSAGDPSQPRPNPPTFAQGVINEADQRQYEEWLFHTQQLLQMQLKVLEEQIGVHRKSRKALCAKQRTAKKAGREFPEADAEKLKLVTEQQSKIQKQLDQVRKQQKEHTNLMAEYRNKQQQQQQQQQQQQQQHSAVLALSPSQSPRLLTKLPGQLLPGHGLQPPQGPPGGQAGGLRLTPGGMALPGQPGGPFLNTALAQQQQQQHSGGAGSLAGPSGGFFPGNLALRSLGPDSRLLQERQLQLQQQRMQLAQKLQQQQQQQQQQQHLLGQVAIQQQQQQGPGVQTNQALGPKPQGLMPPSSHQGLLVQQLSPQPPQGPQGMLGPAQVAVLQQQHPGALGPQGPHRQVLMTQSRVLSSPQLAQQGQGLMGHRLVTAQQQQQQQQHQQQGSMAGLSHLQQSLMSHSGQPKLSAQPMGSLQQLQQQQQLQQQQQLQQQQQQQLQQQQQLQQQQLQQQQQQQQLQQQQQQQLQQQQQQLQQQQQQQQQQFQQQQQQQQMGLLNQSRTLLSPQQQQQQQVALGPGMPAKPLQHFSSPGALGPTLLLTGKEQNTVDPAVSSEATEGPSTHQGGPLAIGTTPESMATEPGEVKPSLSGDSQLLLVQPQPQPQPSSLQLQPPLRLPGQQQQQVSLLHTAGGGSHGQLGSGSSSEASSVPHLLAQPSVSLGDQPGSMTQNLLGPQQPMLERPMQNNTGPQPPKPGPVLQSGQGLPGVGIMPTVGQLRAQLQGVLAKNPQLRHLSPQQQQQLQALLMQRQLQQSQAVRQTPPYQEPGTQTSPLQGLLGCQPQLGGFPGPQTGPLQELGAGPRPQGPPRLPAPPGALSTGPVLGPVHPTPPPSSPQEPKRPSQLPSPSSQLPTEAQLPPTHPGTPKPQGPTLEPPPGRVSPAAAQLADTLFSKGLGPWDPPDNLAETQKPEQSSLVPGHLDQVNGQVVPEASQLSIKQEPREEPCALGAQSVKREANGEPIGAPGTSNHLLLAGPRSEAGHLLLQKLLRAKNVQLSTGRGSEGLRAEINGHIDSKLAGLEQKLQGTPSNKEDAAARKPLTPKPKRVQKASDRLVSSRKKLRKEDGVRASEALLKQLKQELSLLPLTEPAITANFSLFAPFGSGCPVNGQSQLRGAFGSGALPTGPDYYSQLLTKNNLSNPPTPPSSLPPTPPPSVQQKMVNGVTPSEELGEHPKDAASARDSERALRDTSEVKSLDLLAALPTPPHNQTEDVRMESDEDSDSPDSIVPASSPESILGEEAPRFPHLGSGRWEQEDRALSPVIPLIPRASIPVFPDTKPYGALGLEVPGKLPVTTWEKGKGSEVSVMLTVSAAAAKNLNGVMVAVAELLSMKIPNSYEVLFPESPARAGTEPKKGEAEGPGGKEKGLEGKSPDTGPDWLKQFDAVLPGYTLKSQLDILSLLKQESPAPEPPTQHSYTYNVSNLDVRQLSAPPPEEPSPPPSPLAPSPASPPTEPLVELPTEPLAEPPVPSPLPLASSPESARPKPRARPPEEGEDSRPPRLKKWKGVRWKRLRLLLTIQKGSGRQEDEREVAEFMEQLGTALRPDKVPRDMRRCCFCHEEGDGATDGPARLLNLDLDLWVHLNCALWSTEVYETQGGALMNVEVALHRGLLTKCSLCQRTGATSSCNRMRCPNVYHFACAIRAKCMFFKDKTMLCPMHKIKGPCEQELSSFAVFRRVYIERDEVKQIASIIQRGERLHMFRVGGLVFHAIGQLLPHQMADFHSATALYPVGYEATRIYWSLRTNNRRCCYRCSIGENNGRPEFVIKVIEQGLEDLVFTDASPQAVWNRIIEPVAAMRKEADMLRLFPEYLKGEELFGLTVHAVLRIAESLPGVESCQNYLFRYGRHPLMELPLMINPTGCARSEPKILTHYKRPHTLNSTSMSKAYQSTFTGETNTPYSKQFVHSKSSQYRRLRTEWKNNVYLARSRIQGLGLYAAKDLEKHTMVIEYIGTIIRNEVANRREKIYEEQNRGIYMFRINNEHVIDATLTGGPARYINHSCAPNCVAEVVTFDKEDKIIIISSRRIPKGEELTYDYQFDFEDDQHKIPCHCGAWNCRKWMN
UniProt P04150: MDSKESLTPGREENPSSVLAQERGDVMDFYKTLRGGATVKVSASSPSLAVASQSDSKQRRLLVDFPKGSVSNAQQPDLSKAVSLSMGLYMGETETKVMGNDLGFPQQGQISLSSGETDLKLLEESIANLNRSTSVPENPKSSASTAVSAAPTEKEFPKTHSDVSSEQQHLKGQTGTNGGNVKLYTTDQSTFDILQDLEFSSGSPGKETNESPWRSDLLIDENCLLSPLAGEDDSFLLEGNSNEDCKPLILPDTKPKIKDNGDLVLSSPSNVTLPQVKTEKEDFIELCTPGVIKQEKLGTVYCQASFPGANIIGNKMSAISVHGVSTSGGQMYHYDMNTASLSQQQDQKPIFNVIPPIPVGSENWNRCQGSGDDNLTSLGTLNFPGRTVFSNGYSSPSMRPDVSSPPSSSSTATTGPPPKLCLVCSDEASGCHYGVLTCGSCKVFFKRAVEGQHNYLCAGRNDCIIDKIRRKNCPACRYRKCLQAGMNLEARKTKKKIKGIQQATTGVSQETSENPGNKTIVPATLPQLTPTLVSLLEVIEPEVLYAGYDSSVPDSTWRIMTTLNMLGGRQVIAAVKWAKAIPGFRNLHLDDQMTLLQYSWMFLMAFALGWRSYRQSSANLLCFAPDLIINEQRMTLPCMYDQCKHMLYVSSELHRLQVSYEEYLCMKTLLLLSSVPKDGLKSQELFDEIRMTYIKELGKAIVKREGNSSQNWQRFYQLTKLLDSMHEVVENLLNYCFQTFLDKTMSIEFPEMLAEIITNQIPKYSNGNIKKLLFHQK

Key:
[1] = biological target: histone lysine methyltransferase KMT2D (human (endogenous in L363, MM1S and A549)) (UniProt O14686); experiment: proximity ligation; endogenous proteins in fixed, permeabilised MM1S multiple myeloma cells, with or without 100 nM Dex for 30 min at 37 °C; rabbit anti-KMT2D and mouse anti-GR, Duolink probes; single antibodies as controls
[2] = biological target: histone lysine methyltransferase KMT2D (human (endogenous in L363, MM1S and A549)) (UniProt O14686); experiment: co-IP; endogenous proteins; L363 cells cultured with or without 100 nM Dex for 30 min, lysed in RIPA buffer (0.1% SDS); anti-KMT2D or control IgG immunoprecipitates immunoblotted for KMT2D and GR
[3] = biological target: histone lysine methyltransferase KMT2D (human (endogenous in L363, MM1S and A549)) (UniProt O14686); experiment: proximity ligation; endogenous proteins in fixed, permeabilised A549 lung adenocarcinoma cells, with or without 100 nM Dex for 30 min at 37 °C; rabbit anti-KMT2D and mouse anti-GR, Duolink probes; single antibodies as controls

binding [1]: binds | binding [2]: binds weakly | binding [3]: binds
Substance: glucocorticoid receptor (from UniProt P04150 1-777)
